Results are given in words; binding and its absence hold for the method and conditions named. Binding seen in cells or lysates may run through a third protein. Some results given as binding are weak or reduced against the parent protein; the word gives no strength.

By UniProt entry, the sequences of proteins in these tests, tags left out. Residues count along the entry.
UniProt Q92673, residues 82-2214: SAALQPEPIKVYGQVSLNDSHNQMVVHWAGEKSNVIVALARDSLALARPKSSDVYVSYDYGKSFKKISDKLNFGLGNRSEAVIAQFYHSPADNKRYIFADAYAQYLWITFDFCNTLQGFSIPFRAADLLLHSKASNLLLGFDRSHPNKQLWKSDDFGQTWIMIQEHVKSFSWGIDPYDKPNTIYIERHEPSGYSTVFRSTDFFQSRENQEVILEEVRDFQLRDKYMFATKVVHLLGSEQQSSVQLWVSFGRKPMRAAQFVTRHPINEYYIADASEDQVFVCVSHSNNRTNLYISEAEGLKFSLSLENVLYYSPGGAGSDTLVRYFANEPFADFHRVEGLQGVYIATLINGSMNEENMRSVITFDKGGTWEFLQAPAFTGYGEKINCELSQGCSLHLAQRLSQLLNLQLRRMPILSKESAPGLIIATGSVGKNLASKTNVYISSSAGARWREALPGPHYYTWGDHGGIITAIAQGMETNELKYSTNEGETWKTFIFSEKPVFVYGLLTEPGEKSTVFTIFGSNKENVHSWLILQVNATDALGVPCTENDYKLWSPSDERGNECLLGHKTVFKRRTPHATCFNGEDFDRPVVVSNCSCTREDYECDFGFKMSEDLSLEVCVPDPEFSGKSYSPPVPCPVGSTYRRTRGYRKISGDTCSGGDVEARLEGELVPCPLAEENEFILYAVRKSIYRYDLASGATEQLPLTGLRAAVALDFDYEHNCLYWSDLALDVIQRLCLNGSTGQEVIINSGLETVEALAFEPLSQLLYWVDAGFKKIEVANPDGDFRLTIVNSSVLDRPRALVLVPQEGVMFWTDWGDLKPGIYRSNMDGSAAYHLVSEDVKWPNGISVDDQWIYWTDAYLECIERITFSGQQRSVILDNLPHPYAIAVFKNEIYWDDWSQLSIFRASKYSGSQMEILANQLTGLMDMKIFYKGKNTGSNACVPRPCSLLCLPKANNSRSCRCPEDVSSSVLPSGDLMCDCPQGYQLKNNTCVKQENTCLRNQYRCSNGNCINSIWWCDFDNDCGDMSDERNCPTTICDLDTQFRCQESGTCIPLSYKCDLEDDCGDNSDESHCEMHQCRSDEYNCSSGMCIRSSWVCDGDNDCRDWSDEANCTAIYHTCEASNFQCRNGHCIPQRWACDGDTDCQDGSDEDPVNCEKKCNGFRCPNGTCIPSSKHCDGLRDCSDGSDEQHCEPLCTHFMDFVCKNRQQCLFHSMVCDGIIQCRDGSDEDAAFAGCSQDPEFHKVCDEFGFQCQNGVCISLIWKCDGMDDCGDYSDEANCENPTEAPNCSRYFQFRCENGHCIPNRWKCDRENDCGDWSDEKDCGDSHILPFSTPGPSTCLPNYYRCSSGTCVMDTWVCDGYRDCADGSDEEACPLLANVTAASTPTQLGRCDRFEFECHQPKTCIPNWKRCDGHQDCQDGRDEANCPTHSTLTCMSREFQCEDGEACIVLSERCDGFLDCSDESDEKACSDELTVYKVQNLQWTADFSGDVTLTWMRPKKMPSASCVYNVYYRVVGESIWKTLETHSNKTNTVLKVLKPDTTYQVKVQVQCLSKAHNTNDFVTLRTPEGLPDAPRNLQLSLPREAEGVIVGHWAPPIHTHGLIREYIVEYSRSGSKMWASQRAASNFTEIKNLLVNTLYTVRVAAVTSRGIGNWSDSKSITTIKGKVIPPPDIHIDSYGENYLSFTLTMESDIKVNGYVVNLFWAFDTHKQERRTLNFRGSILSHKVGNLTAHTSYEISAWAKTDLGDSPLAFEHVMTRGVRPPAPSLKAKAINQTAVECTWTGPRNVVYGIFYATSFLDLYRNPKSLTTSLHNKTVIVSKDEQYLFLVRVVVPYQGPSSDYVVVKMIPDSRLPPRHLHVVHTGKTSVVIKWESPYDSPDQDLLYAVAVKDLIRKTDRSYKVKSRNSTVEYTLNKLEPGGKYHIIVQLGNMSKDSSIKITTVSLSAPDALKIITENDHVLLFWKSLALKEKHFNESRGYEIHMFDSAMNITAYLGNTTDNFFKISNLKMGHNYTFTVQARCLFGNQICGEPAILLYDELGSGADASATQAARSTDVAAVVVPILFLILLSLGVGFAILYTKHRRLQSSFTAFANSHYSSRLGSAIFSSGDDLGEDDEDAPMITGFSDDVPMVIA
UniProt P05067, residues 18-770: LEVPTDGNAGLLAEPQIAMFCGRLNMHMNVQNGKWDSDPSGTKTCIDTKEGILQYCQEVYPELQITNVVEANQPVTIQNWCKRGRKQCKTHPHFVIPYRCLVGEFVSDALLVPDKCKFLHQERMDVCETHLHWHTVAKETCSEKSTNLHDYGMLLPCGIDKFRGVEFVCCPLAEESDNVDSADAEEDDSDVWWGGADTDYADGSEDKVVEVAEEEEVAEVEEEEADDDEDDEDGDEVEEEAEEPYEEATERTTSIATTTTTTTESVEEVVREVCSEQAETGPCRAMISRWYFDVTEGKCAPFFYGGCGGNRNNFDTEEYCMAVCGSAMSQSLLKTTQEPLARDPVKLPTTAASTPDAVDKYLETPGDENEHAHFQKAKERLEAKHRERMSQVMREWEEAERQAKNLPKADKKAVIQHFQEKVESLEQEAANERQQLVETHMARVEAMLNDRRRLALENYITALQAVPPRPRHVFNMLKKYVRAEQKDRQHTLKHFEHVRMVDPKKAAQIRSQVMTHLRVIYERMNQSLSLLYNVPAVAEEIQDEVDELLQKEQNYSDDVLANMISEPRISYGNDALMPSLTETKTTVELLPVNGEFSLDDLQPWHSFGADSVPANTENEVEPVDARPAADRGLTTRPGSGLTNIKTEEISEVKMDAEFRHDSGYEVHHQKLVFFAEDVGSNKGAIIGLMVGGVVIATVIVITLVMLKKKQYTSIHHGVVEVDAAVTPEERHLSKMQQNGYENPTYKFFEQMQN

The target in experiment [1] is sortilin-related receptor (SORL1) (human (endogenous in neurons from iPSC-derived NSCs)) (UniProt Q92673). Kind of experiment: co-IP; lysate of control neurons (n.1) after five weeks in culture; precipitated with mouse anti-SORL1 (ab63336) on Dynabeads Protein G, eluted with 0.1 M citrate buffer; blot with rabbit anti-APP (Y188).
The target in experiment [2] is amyloid precursor protein (APP) (human (endogenous in neurons from iPSC-derived NSCs)) (UniProt P05067). Put plainly: co-IP; lysates of control and E4/E4 neurons after five weeks in culture, untreated or with vehicle (DMSO 0.01%), beta-secretase inhibitor or gamma-secretase inhibitor (50 nM); precipitated with anti-APP antibody, blot with anti-SORL1.

On to “amyloid precursor protein (APP) (from UniProt P05067 18-770)”, for which the binding entry in experiment [1] is “binds”. On to “sortilin-related receptor (SORL1) (from UniProt Q92673 82-2214)”, for which, in experiment [2], the binding result is “binds”.

Source of the values: paper PMC5467336.
